Laboratory results published in patent publication US7094543B2, “Methods for detecting rare polymorphic variants in genomic DNA sequences” (Massachusetts Institute of Technology, priority 2000, dated 2006).

Test system: 121 bp APC target sequence
Experiment: Pfu-PCR noise / polymerase error rate
Assay type: biochemical, human

B1: Pfu DNA polymerase: native Pyrococcus furiosus (Pfu) DNA polymerase with an associated 3′−>5′ exonuclease activity (Stratagene) (protein, UniProt P61875 1-775, looked up)
DNA polymerase: MILDVDYITEEGKPVIRLFKKENGKFKIEHDRTFRPYIYALLRDDSKIEEVKKITGERHGKIVRIVDVEKVEKKFLGKPITVWKLYLEHPQDVPTIREKVREHPAVVDIFEYDIPFAKRYLIDKGLIPMEGEEELKILAFDIETLYHEGEEFGKGPIIMISYADENEAKVITWKNIDLPYVEVVSSEREMIKRFLRIIREKDPDIIVTYNGDSFDFPYLAKRAEKLGIKLTIGRDGSEPKMQRIGDMTAVEVKGRIHFDLYHVITRTINLPTYTLEAVYEAIFGKPKEKVYADEIAKAWESGENLERVAKYSMEDAKATYELGKEFLPMEIQLSRLVGQPLWDVSRSSTGNLVEWFLLRKAYERNEVAPNKPSEEEYQRRLRESYTGGFVKEPEKGLWENIVYLDFRALYPSIIITHNVSPDTLNLEGCKNYDIAPQVGHKFCKDIPGFIPSLLGHLLEERQKIKTKMKETQDPIEKILLDYRQKAIKLLANSFYGYYGYAKARWYCKECAESVTAWGRKYIELVWKELEEKFGFKVLYIDTDGLYATIPGGESEEIKKKALEFVKYINSKLPGLLELEYEGFYKRGFFVTKKRYAVIDEEGKVITRGLEIVRRDWSEIAKETQARVLETILKHGDVEEAVRIVKEVIQKLANYEIPPEKLAIYEQITRPLHEYKAIGPHVAVAKKLAAKGVKIKPGMVIGYIVLRGDGPISNRAILAEEYDPKKHKYDAEYYIENQVLPAVLRILEGFGYRKEDLRYQKTRQVGLTSWLNIKKS
For B1, which “Pfu DNA polymerase error rate” value (121 bp APC target sequence, 21 doublings) is on record?
Its value is 1.8×10^−6 mutations per bp per doubling.

What about the “mutant fraction of each of fourteen polymerase-created GC->TA transversions, equivalent in the original samples” value (APC target sequence) of the same molecule?
Its value is “around 10^−6”.
